Results are given in words; binding and its absence hold for the method and conditions named. In cells and extracts the contact can be indirect. Here binding means that the protein was enriched with, or labelled near, the bait; the list need not be complete.
T1: MX2-MUTT2A-TurboID (human) (UniProt P20592)
T1 sequence: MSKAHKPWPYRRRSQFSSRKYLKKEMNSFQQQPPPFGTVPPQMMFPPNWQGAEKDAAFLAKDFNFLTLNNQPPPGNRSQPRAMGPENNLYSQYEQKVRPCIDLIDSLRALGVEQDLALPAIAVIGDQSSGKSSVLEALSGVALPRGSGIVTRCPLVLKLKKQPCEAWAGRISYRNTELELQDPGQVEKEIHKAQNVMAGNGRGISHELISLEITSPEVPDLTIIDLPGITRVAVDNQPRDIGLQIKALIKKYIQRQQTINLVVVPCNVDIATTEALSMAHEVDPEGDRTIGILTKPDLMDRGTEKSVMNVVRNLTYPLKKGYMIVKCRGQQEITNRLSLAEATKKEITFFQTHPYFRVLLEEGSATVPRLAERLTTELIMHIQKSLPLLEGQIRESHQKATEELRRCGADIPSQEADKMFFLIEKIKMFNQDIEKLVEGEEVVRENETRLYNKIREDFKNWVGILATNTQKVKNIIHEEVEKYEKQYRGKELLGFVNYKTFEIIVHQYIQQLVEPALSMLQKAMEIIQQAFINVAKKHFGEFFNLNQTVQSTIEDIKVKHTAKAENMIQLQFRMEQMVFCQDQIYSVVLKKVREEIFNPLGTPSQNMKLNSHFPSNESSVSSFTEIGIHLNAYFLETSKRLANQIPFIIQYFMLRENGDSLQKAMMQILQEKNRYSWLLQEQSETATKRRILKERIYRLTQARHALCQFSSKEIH

Protein sequences, listed by entry. Tags and fused reporters are not part of them.
UniProt Q96I24: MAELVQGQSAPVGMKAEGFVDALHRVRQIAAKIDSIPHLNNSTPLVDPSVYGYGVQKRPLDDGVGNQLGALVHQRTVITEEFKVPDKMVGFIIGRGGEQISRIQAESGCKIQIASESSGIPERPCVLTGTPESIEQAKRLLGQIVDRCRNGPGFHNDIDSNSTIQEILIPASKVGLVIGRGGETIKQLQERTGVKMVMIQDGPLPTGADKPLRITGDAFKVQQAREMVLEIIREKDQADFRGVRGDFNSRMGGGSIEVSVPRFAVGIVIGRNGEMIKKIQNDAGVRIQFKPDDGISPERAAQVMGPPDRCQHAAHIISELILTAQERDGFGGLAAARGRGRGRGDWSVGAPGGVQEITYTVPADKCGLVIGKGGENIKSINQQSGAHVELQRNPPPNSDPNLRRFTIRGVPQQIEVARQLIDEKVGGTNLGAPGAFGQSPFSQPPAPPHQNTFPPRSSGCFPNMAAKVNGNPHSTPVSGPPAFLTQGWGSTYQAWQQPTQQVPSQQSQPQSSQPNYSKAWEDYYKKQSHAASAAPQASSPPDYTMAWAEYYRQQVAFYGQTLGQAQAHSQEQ
UniProt Q92973: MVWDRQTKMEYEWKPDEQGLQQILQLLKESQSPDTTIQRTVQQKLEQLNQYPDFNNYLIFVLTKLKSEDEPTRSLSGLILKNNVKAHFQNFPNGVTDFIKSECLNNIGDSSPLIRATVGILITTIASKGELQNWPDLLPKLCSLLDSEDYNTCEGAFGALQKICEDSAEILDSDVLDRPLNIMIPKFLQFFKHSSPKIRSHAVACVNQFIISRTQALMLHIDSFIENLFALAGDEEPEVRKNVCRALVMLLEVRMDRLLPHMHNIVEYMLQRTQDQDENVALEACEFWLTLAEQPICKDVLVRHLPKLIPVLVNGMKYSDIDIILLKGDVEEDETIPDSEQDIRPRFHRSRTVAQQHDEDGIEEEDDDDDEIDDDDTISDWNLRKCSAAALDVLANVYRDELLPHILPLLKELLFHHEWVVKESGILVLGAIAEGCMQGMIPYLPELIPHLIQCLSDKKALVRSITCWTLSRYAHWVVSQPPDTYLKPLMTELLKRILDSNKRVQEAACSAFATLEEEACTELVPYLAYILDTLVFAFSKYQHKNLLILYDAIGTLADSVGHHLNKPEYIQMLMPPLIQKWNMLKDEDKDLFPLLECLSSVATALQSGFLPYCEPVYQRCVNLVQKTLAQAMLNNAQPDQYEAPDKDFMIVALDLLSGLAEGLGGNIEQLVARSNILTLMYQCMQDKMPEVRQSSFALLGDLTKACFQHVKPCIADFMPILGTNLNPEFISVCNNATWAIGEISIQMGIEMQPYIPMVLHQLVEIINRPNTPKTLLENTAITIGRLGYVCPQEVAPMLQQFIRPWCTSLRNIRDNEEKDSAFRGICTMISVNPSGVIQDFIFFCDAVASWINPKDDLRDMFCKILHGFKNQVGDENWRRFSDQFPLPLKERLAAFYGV
UniProt Q96HA1: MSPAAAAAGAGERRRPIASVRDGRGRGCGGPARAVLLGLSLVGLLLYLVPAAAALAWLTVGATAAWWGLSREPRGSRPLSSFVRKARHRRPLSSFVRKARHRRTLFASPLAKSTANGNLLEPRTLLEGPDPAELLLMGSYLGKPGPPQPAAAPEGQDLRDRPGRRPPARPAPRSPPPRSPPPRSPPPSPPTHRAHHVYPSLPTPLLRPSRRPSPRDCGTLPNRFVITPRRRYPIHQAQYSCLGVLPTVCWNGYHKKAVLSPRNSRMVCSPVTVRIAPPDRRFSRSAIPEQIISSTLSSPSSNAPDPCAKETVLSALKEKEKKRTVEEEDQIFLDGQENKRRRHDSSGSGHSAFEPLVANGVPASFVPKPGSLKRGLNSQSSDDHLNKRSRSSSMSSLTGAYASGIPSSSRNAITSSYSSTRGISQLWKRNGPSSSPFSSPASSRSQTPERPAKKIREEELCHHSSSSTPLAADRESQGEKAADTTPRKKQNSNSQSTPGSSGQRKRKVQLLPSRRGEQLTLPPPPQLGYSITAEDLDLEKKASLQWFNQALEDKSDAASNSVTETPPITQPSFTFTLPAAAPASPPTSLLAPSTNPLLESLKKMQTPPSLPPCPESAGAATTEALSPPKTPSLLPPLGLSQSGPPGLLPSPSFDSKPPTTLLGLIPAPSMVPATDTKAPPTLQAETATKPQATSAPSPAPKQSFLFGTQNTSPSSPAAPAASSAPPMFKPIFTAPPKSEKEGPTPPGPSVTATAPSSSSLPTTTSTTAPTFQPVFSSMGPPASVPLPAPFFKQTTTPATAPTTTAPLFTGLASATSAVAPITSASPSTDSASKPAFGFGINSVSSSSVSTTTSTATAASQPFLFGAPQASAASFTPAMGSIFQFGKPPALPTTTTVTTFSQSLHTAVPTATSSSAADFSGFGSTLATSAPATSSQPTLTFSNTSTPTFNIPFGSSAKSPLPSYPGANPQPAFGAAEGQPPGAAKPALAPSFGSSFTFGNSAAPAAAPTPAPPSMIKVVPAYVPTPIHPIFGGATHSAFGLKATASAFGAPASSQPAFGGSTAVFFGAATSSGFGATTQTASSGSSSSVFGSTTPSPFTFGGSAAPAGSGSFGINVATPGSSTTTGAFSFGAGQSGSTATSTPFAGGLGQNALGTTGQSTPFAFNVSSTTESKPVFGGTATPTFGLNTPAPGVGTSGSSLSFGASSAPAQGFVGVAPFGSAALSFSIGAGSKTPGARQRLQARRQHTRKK
UniProt Q9BVL2: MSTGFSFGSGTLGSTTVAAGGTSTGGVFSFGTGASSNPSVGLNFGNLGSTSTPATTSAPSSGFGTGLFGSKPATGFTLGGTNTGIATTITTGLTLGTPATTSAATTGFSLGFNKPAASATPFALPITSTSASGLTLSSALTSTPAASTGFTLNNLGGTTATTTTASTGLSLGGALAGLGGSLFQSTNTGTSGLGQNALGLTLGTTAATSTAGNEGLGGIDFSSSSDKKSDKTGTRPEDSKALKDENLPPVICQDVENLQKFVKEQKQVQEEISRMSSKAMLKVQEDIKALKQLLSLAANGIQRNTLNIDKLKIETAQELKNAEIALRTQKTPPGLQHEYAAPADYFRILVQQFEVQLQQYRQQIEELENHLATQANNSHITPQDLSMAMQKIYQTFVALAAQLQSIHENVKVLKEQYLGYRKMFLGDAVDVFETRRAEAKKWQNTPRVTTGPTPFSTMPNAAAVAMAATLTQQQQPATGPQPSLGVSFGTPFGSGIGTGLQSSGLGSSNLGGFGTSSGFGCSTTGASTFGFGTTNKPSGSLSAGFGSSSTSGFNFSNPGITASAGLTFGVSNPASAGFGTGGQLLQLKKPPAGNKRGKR
UniProt P49792: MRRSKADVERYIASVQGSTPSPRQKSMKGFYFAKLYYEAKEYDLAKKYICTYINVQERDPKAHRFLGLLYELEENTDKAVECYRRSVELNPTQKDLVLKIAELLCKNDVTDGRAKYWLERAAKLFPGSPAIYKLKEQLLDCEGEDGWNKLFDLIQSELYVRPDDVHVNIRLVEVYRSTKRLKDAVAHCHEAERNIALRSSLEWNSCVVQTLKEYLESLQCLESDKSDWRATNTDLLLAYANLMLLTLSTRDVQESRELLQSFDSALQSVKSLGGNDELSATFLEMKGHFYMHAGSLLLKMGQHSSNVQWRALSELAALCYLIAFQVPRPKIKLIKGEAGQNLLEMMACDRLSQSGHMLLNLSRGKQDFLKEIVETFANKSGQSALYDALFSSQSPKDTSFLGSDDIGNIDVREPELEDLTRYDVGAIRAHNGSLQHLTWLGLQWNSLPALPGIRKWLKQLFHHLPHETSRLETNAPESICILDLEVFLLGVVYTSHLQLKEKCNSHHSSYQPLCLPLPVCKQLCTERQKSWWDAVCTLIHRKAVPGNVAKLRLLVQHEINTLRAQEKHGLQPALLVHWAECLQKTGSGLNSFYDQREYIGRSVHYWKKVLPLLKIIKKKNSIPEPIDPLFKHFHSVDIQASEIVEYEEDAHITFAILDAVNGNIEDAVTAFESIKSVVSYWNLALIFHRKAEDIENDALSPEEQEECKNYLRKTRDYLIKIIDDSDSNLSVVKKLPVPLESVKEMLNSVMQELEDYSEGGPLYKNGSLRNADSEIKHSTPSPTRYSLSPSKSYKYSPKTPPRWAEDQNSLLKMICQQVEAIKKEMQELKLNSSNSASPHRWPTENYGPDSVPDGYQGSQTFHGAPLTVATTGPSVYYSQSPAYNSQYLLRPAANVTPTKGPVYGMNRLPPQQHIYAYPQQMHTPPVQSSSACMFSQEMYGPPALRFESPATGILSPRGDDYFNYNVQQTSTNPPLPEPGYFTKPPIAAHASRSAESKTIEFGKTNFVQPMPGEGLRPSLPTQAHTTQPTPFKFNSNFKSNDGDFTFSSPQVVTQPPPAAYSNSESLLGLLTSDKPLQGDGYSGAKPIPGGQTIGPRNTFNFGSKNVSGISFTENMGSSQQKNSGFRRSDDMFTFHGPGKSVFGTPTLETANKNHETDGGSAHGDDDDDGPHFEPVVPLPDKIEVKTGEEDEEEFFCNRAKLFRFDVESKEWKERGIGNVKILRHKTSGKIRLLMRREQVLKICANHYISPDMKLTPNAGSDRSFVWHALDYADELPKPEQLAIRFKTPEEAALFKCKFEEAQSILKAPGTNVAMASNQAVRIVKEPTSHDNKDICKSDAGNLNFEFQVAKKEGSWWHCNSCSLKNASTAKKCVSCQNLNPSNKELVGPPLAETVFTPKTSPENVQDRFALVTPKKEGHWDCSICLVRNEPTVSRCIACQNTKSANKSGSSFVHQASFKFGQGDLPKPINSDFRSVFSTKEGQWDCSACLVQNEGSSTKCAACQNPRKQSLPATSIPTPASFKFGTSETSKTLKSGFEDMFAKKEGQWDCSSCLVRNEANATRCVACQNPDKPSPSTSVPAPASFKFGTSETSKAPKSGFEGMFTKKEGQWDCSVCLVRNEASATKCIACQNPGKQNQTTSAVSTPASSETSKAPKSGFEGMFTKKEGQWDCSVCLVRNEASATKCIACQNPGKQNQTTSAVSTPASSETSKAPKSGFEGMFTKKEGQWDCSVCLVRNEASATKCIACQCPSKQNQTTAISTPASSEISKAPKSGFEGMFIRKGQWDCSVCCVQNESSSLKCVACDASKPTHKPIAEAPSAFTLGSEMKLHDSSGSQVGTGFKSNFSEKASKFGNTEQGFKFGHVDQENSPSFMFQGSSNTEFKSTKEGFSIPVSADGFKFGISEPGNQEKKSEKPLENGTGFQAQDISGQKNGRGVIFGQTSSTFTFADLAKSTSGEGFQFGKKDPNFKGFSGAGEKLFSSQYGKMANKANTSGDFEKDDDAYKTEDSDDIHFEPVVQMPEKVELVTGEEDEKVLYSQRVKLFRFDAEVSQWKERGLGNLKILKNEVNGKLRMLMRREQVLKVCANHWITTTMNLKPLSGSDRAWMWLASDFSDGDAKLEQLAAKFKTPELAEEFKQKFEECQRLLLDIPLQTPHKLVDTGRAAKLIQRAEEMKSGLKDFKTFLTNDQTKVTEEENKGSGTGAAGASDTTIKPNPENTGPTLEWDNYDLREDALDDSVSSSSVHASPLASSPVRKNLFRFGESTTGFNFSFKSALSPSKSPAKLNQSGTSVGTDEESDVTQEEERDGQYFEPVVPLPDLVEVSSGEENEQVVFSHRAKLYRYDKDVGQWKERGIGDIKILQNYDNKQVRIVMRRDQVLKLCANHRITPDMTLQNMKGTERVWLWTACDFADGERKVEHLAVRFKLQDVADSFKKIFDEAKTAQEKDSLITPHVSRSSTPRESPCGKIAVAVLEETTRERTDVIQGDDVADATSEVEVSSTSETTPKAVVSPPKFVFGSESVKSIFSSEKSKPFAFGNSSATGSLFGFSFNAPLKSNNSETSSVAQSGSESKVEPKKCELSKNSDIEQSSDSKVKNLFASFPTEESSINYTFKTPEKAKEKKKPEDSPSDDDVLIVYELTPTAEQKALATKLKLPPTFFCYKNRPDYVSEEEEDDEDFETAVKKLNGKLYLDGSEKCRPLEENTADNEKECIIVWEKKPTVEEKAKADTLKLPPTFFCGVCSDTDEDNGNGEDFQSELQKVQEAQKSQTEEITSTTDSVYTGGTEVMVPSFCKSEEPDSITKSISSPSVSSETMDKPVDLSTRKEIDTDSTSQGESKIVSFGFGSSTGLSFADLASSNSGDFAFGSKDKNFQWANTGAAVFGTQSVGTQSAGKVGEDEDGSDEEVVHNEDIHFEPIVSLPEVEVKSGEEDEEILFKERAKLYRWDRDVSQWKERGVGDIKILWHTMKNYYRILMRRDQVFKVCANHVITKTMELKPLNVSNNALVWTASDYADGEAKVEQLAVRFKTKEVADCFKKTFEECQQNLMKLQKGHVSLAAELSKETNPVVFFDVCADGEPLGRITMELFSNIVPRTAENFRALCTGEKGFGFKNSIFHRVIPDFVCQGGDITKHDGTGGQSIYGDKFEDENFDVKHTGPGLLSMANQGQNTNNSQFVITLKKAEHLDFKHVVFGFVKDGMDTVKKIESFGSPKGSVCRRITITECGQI

B1: NUP107 (protein, UniProt P57740 1-925)
chain: MDRSGFGEISSPVIREAEVTRTARKQSAQKRVLLQASQDENFGNTTPRNQVIPRTPSSFRQPFTPTSRSLLRQPDISCILGTGGKSPRLTQSSGFFGNLSMVTNLDDSNWAAAFSSQRSGLFTNTEPHSITEDVTISAVMLREDDPGEAASMSMFSDFLQSFLKHSSSTVFDLVEEYENICGSQVNILSKIVSRATPGLQKFSKTASMLWLLQQEMVTWRLLASLYRDRIQSALEEESVFAVTAVNASEKTVVEALFQRDSLVRQSQLVVDWLESIAKDEIGEFSDNIEFYAKSVYWENTLHTLKQRQLTSYVGSVRPLVTELDPDAPIRQKMPLDDLDREDEVRLLKYLFTLIRAGMTEEAQRLCKRCGQAWRAATLEGWKLYHDPNVNGGTELEPVEGNPYRRIWKISCWRMAEDELFNRYERAIYAALSGNLKQLLPVCDTWEDTVWAYFRVMVDSLVEQEIQTSVATLDETEELPREYLGANWTLEKVFEELQATDKKRVLEENQEHYHIVQKFLILGDIDGLMDEFSKWLSKSRNNLPGHLLRFMTHLILFFRTLGLQTKEEVSIEVLKTYIQLLIREKHTNLIAFYTCHLPQDLAVAQYALFLESVTEFEQRHHCLELAKEADLDVATITKTVVENIRKKDNGEFSHHDLAPALDTGTTEEDRLKIDVIDWLVFDPAQRAEALKQGNAIMRKFLASKKHEAAKEVFVKIPQDSIAEIYNQCEEQGMESPLPAEDDNAIREHLCIRAYLEAHETFNEWFKHMNSVPQKPALIPQPTFTEKVAHEHKEKKYEMDFGIWKGHLDALTADVKEKMYNVLLFVDGGWMVDVREDAKEDHERTHQMVLLRKLCLPMLCFLLHTILHSTGQYQECLQLADMVSSERHKLYLVFSKEELRKLLQKLRESSLMLLDQGLDPLGYEIQL
B2: SAMD4B (protein, UniProt Q5PRF9 1-694)
chain: MMFRDQVGILAGWFKGWNECEQTVALLSLLKRVTRTQARFLQLCLEHSLADCNDIHLLESEANSAAIVSQWQQESKEKVVSLLLSHLPLLQPGNTEAKSEYMRLLQKVLAYSIESNAFIEESRQLLSYALIHPATTLEDRNALALWLSHLEERLASGFRSRPEPSYHSRQGSDEWGGPAELGPGEAGPGWQDKPPRENGHVPFHPSSSVPPAINSIGSNANTGLPCQIHPSPLKRSMSLIPTSPQVPGEWPSPEELGARAAFTTPDHAPLSPQSSVASSGSEQTEEQGSSRNTFQEDGSGMKDVPSWLKSLRLHKYAALFSQMSYEEMMTLTEQHLESQNVTKGARHKIALSIQKLRERQSVLKSLEKDVLEGGNLRNALQELQQIIITPIKAYSVLQATVAAATTTPTAKDGAPGEPPLPGAEPPLAHPGTDKGTEAKDPPAVENYPPPPAPAPTDGSEPAPAPVADGDIPSQFTRVMGKVCTQLLVSRPDEENITSYLQLIEKCLTHEAFTETQKKRLLSWKQQVLKLLRTFPRKAALEMQNYRQQKGWAFGSNSLPIAGSVGMGVARRTQRQFPMPPRALPPGRMGLLSPSGIGGVSPRHALTSPSLGGQGRQNLWFANPGGSNSMPSQSRSSVQRTHSLPVHSSPQAILMFPPDCPVPGPDLEINPTLESLCLSMTEHALGDGTDKTSTI
B3: FAM120C (protein, UniProt Q9NX05 1-1096)
chain: MGVQGFQEFLEKRCPGAVVPVDLLKLARTVSRQQQQQHLHRQLPPTAALAPGAPRAARGSVPLQPPLPPAALGAYSGGAGPTRHHHPAHHFHHHGQAQPGLHPPLPPPPPPQLPGARVLVDAGSALPRLYGGYQTDWVCGGQWNAMLGYLSALCQACAYPGGDGLELVVMFPGGLGKDRLAEWGRRCQAERQTAQLIVGHVGNKGTPPPRAWFLPPACLSHCVRLALIRFRVKVFQSLEDHHLEVVAFFRENGFHGLLAHDSEYALYNIPSYYSSHALKLSWNGKNLTTNQFLMQEVAKQLGLKRMNFPIFAALLGNHILPDEDLAAFHWSLLGPEHPLASLKVRAHQLVLPPCDVVIKAVSEYVSSIKDPSNLDVVGKDVFKQSQSRTEDKIERFKKAVEYYSVTTKLSSLPVGPSFLGFRNNRLGNPPLPRNQVGTISAGKPMFSHQVPQKVKYPPPFPVGPNSSLLFSSHALGESHAFSEDPMLQNSPFANWAVSYDSSASQFPNYLPSKASPPLGPDSSHSSSSDGDEPNGASSDHITEAFHHQPEWGNPNRDRGSWAQPVDTGVSEASLGDGEPHIPSLLSMSTRNHMDITIPPLPPVAPEVLRVAEHRHRRGLMYPYIYHVLTKGEIKIPVCIEDECNMELPPAALLFRSARQYVYGVLFSLAETQRKMERLAMRRRLPVEVPSVILKEWSAYKGKSPQTPELVSALTFREWTCPNLKKLWLGKAVEDKNRRMRAFLACMKSDTPSMLNPANVPTHLLLMCCVLRYMVQWPGGRILHRHELDTFLAQAVSTQLYEPDRLQELKIEKLDARGIQLAALFMSGVDTALFANDACGQPVPWEHCCPWIYFDGKLFQSKLIKAGRERVSLVELCDGQADLATKVEKMRQSILEGVNMNHPPPSALLPSPTFVPPMVPSLYPVSLYSRAMGSMPLPPQGRSRGFAGLHPIPPQGGKLEIAGMVVGQWAGSRSSRGRGSFGMQVVSVGGPGKGHGKEQTGRGSKGHKKGNKQGSSDGVSKSLELHQGRSRSQVNGNSGALIKEEKSDHRLPAPSQCALSRDSNECNNGNRYLPMNNREKNHLQEQKLETVAQRKED
B4: SAMD4A (endogenous) (protein, UniProt Q9UPU9 1-718)
chain: MMFRDQVGVLAGWFKGWNECEQTVALLSLLKRVSQTQARFLQLCLEHSLADCAELHVLEREANSPGIINQWQQESKDKVISLLLTHLPLLKPGNLDAKVEYMKLLPKILAHSIEHNQHIEESRQLLSYALIHPATSLEDRSALAMWLNHLEDRTSTSFGGQNRGRSDSVDYGQTHYYHQRQNSDDKLNGWQNSRDSGICINASNWQDKSMGCENGHVPLYSSSSVPTTINTIGTSTSTILSGQAHHSPLKRSVSLTPPMNVPNQPLGHGWMSHEDLRARGPQCLPSDHAPLSPQSSVASSGSGGSEHLEDQTTARNTFQEEGSGMKDVPAWLKSLRLHKYAALFSQMTYEEMMALTECQLEAQNVTKGARHKIVISIQKLKERQNLLKSLERDIIEGGSLRIPLQELHQMILTPIKAYSSPSTTPEARRREPQAPRQPSLMGPESQSPDCKDGAAATGATATPSAGASGGLQPHQLSSCDGELAVAPLPEGDLPGQFTRVMGKVCTQLLVSRPDEENISSYLQLIDKCLIHEAFTETQKKRLLSWKQQVQKLFRSFPRKTLLDISGYRQQRNRGFGQSNSLPTAGSVGGGMGRRNPRQYQIPSRNVPSARLGLLGTSGFVSSNQRNTTATPTIMKQGRQNLWFANPGGSNSMPSRTHSSVQRTRSLPVHTSPQNMLMFQQPEFQLPVTEPDINNRLESLCLSMTEHALGDGVDRTSTI
B5: TRIM56 (protein, UniProt Q9BRZ2 1-755)
chain: MVSHGSSPSLLEALSSDFLACKICLEQLRAPKTLPCLHTYCQDCLAQLADGGRVRCPECRETVPVPPEGVASFKTNFFVNGLLDLVKARACGDLRAGKPACALCPLVGGTSTGGPATARCLDCADDLCQACADGHRCTRQTHTHRVVDLVGYRAGWYDEEARERQAAQCPQHPGEALRFLCQPCSQLLCRECRLDPHLDHPCLPLAEAVRARRPGLEGLLAGVDNNLVELEAARRVEKEALARLREQAARVGTQVEEAAEGVLRALLAQKQEVLGQLRAHVEAAEEAARERLAELEGREQVARAAAAFARRVLSLGREAEILSLEGAIAQRLRQLQGCPWAPGPAPCLLPQLELHPGLLDKNCHLLRLSFEEQQPQKDGGKDGAGTQGGEESQSRREDEPKTERQGGVQPQAGDGAQTPKEEKAQTTREEGAQTLEEDRAQTPHEDGGPQPHRGGRPNKKKKFKGRLKSISREPSPALGPNLDGSGLLPRPIFYCSFPTRMPGDKRSPRITGLCPFGPREILVADEQNRALKRFSLNGDYKGTVPVPEGCSPCSVAALQSAVAFSASARLYLINPNGEVQWRRALSLSQASHAVAALPSGDRVAVSVAGHVEVYNMEGSLATRFIPGGKASRGLRALVFLTTSPQGHFVGSDWQQNSVVICDGLGQVVGEYKGPGLHGCQPGSVSVDKKGYIFLTLREVNKVVILDPKGSLLGDFLTAYHGLEKPRVTTMVDGRYLVVSLSNGTIHIFRVRSPDS
B6: NUP54 (protein, UniProt Q7Z3B4 1-507)
chain: MAFNFGAPSGTSGTAAATAAPAGGFGGFGTTSTTAGSAFSFSAPTNTGTTGLFGGTQNKGFGFGTGFGTTTGTSTGLGTGLGTGLGFGGFNTQQQQQTTLGGLFSQPTQAPTQSNQLINTASALSAPTLLGDERDAILAKWNQLQAFWGTGKGYFNNNIPPVEFTQENPFCRFKAVGYSCMPSNKDEDGLVVLVFNKKETEIRSQQQQLVESLHKVLGGNQTLTVNVEGTKTLPDDQTEVVIYVVERSPNGTSRRVPATTLYAHFEQANIKTQLQQLGVTLSMTRTELSPAQIKQLLQNPPAGVDPIIWEQAKVDNPDSEKLIPVPMVGFKELLRRLKVQDQMTKQHQTRLDIISEDISELQKNQTTSVAKIAQYKRKLMDLSHRTLQVLIKQEIQRKSGYAIQADEEQLRVQLDTIQGELNAPTQFKGRLNELMSQIRMQNHFGAVRSEERYYIDADLLREIKQHLKQQQEGLSHLISIIKDDLEDIKLVEHGLNETIHIRGGVFS
B7: NUP35 (endogenous) (protein, UniProt Q8NFH5 1-326)
chain: MAAFAVEPQGPALGSEPMMLGSPTSPKPGVNAQFLPGFLMGDLPAPVTPQPRSISGPSVGVMEMRSPLLAGGSPPQPVVPAHKDKSGAPPVRSIYDDISSPGLGSTPLTSRRQPNISVMQSPLVGVTSTPGTGQSMFSPASIGQPRKTTLSPAQLDPFYTQGDSLTSEDHLDDSWVTVFGFPQASASYILLQFAQYGNILKHVMSNTGNWMHIRYQSKLQARKALSKDGRIFGESIMIGVKPCIDKSVMESSDRCALSSPSLAFTPPIKTLGTPTQPGSTPRISTMRPLATAYKASTSDYQVISDRQTPKKDESLVSKAMEYMFGW

These molecules were tested against T1, MX2-MUTT2A-TurboID (human) (assay: proximity labelling).
With FUBP3 (from UniProt Q96I24 1-572) the binding was “binds”. For “TNPO1 (endogenous) (from UniProt Q92973 1-898)”, the binding was “binds”. POM121 (from UniProt Q96HA1 1-1249) was tested, and the binding was “binds”. “NUPL1(NUP58) (from UniProt Q9BVL2 1-599)” was tested, and the binding was “binds”. In the case of LSM14A (from UniProt Q8ND56 1-463), the binding is reported as “binds”. In the case of “NUP358/RANBP2 (from UniProt P49792 1-3224)”, the binding is reported as “binds”. For B1, the binding was “binds”. With B2 the binding was “binds”. For B3, the binding was “binds”. B4 was tested, and the binding was “binds”. In the case of B5, the binding is reported as “binds”. B6 was tested, and the binding was “binds”. With B7 the binding was “binds”.

From publication doi:10.1101/2023.06.22.545931
